Test results published in the supplement of paper PMC10398353.
Where “and” joins values, the source holds several entries; their conditions need not be identical. Equal entries are not always repeated. Structures can show the parent of a compound that is named as a salt. Some of the results follow. Single values of this set are uncertain.

The compounds below were run on Salmonella enterica serovar Typhimurium ST313 D23580 (assay: normalized bacterial growth (OD600 20 h minus 0 h, interquartile-mean normalized) (fraction of plate interquartile mean); higher = more bacterial growth (less inhibition)). Details: LPM (pH 5.8, low phosphate, low Mg2+), concentration: 10 µM, temperature: 37 °C.

Row | Structure (SMILES) | normalized bacterial growth
1 | Cc1c(C)c2c(c(C)c1O)CCC(C)(CCCC(C)CCCC(C)CCCC(C)C)O2 (stereo not drawn) [alpha-TOCHOPHEROL] | 1.3
2 | CC(=O)O[C@]1(C(C)=O)CC[C@H]2[C@@H]3C=C(C)C4=CC(=O)CC[C@]4(C)[C@H]3CC[C@@]21C | 1.03
3 | CC(=O)O[C@]1(C(C)=O)CC[C@H]2[C@@H]3C=C(C)C4=CC(=O)CC[C@]4(C)[C@H]3CC[C@@]21C [Megestrol acetate] | 0.998
4 | NC[C@H]1O[C@H](O[C@H]2[C@H](O)[C@@H](O[C@H]3O[C@H](CO)[C@@H](O)[C@H](N)[C@H]3O)[C@H](N)C[C@@H]2N)[C@H](N)[C@@H](O)[C@@H]1O | 0.341
5 | Nc1nnc(-c2cccc(Cl)c2Cl)c(N)n1 [Lamotrigine] | 0.944
6 | O=C(O)/C=C(\CC(=O)O)C(=O)O | 0.961
7 | Nc1nc(=O)[nH]cc1F [Flucytosine] | 0.171
8 | Oc1cc(O)cc(/C=C/c2ccc(O)c(O)c2)c1 | 0.925
9 | COc1ccc2cc3[n+](cc2c1OC)CCc1cc2c(cc1-3)OCO2 | 0.831 and 1.03
10 | CC[C@@H]1Cc2cc(O)ccc2C2=C1c1ccc(O)cc1C[C@H]2CC ["(R,R)-cis-Diethyl tetrahydro-2,8-chrysenediol"] | 0.994
11 | COc1ccc2c(c1)OC[C@@H](Cc1ccc(OC)c(OC)c1)[C@@H]2O | 0.78
12 | COC(=O)C[C@H]1C(C)(C)C(=O)[C@@H]2CC3C4=CC(=O)O[C@@H](c5ccoc5)[C@]4(C)CC[C@@H]3[C@@]1(C)C2=O (some centres undefined) | 0.942
13 | CC(C)=CC1C(C(=O)O)C1(C)C (centres undefined) | 1.1
14 | NC(=O)c1cc[n+](CC2=C(C(=O)[O-])N3C(=O)[C@@H](NC(=O)Cc4cccs4)[C@H]3SC2)cc1 [Cefalonium] | 1.09
15 | O=C1C(O)=C(O)C(=O)C(O)=C1O | 0.485
16 | O=C1C(O)=C(O)C(=O)C(O)=C1O ["Tetrahydroxy-1,4-quinone monohydrate"] | 1.18
17 | O=c1c2ccccc2[nH]c(=S)n1CCN1CCC(=C(c2ccc(F)cc2)c2ccc(F)cc2)CC1 [Diacylglycerol Kinase Inhibitor II] | 1.08
18 | Cc1c2oc3c(C)ccc(C(=O)N[C@@H]4C(=O)N[C@H](C(C)C)C(=O)N5CCC[C@H]5C(=O)N(C)CC(=O)N(C)[C@@H](C(C)C)C(=O)O[C@@H]4C)c3nc-2c(C(=O)N[C@@H]2C(=O)N[C@H](C(C)C)C(=O)N3CCC[C@H]3C(=O)N(C)CC(=O)N(C)[C@@H](C(C)C)C(=O)O[C@@H]2C)c(N)c1=O | 0.723 and 0.792
19 | COc1ccc2c(c1)c(CC(=O)OCC(=O)O)c(C)n2C(=O)c1ccc(Cl)cc1 | 1.02
20 | CN1CC(=O)N=C1NC(=O)Nc1cccc(Cl)c1 [Fenobam] | 0.678
21 | CCC(C)C(=O)OC1[C@@H]2CC3=C4CC(=O)O[C@@H](c5ccoc5)[C@]4(C)CCC3[C@@](C)(C2=O)[C@@H](CC(=O)OC)C1(C)C (some centres undefined) | 0.86
22 | CC[C@H](C)C(=O)O[C@H]1C[C@H](O)C=C2C=C[C@H](C)[C@H](CC[C@@H](O)C[C@@H](O)CC(=O)O)[C@H]21 | 0.768
23 | CCCc1c(OCCCOc2ccc(OCC(=O)O)cc2)ccc(C(C)=O)c1O | 0.854
24 | CC1=C(C(=O)O)N2C(=O)[C@@H](NC(=O)[C@H](N)c3ccccc3)[C@H]2SC1 [Cephalexin hydrate] | 1.07
25 | CC1=C(C(=O)O)N2C(=O)[C@@H](NC(=O)[C@H](N)c3ccccc3)[C@H]2SC1 [Cephalexin monohydrate] | 1.03

Row | Structure (SMILES) | normalized bacterial growth
26 | CC(C)(C)NCC(O)COc1cccc2c1CC(O)C(O)C2 (centres undefined) [Nadolol] | 1.09
27 | CC(C)(C)NCC(O)COc1cccc2c1CC(O)C(O)C2 (centres undefined) | 0.984
28 | Cc1cccc(C)c1NC(=O)C[N+](C)(C)C [Lidocaine N-methyl hydrochloride] | 0.757
29 | C[C@H](CCC(=O)NCCS(=O)(=O)O)[C@H]1CC[C@H]2[C@@H]3[C@H](O)C[C@@H]4C[C@H](O)CC[C@]4(C)[C@H]3C[C@H](O)[C@]12C [Sodium Taurocholate hydrate] | 0.911
30 | Cc1ccc(S(=O)(=O)/C=C/C#N)cc1 | 0.0603
31 | CN(C)CC(=O)OC[C@@H](O)[C@@H](O)[C@H](O)[C@@H](O)C(=O)O | 1.24
32 | CCCn1c(=O)c2[nH]c(-c3ccc(OCC(=O)NCCN)cc3)nc2n(CCC)c1=O [Xanthine amine congener] | 1.02
33 | Cc1cc(O)cc(O)c1C(=O)O | 1.18
34 | COc1cc2oc3cc(OC)c(OC)c(CC=C(C)C)c3c(=O)c2c(O)c1CC=C(C)C | 1.08
35 | CC(C)Cn1cnc2c(N)nc3ccccc3c21 [Imiquimod] | 1.05
36 | CC(=O)OCC(=O)[C@@]1(O)[C@H](OC(C)=O)C[C@H]2[C@@H]3CCC4=CC(=O)C=C[C@]4(C)[C@@]3(F)[C@@H](O)C[C@@]21C | 0.912
37 | NC(=O)N1c2ccccc2CC(=O)c2ccccc21 | 0.996
38 | NC1=NCC2c3ccccc3Cc3ccccc3N12 (centres undefined) [Epinastine hydrochloride] | 1.24
39 | O=C(C=Cc1ccc(O)cc1)c1ccccc1O | 1.25
40 | COc1cc2c(cc1OC)-c1c/c(=N\c3c(C)cc(C)cc3C)n(C)c(=O)n1CC2 [Trequinsin hydrochloride] | 0.993
41 | CC(=O)O[C@@H]1CC[C@@]2(C)C(C[C@@H](OC(C)=O)[C@@]3(C)C4=CC(=O)O[C@@H](c5ccoc5)[C@]4(C)CCC23)C1(C)C (stereo partly drawn) [3alpha-ACETOXYDIHYDRODEOXYGEDUNIN] | 0.812
42 | O=C(O)CCCC[C@@H]1CCSS1 | 0.995
43 | CC(=O)O[C@H]1C[C@@H](O)C(C)(C)[C@@H]2C[C@@H](OC(C)=O)[C@]3(C)[C@H](CC[C@@]4(C)[C@@H](c5ccoc5)OC(=O)[C@H]5O[C@@]534)[C@@]12C | 0.69
44 | C=C(C)[C@H]1COc2cc3oc(=O)ccc3cc2O1 | 0.83
45 | O=C1Nc2ccc(I)cc2/C1=C/c1cc(Br)c(O)c(Br)c1 | 0.961
46 | O=C1N=C(O)NC1(c1ccccc1)c1ccccc1 | 1.03
47 | O=C1N=C(O)NC1(c1ccccc1)c1ccccc1 [Phenytoin sodium] | 1.08
48 | COc1cc(NS(=O)(=O)c2ccc(N)cc2)nc(OC)n1 | 1.32
49 | CC[N+](CC)(CC(=O)Nc1c(C)cccc1C)Cc1ccccc1 | 1.13

3 records picked at random from those above, as already listed:
Row | Structure (SMILES) | normalized bacterial growth
49 | CC[N+](CC)(CC(=O)Nc1c(C)cccc1C)Cc1ccccc1 | 1.13
45 | O=C1Nc2ccc(I)cc2/C1=C/c1cc(Br)c(O)c(Br)c1 | 0.961
47 | O=C1N=C(O)NC1(c1ccccc1)c1ccccc1 [Phenytoin sodium] | 1.08
